Data taken from patent US20100173834A1 (priority 2007, published 2010).
Bridges are numbered along the chain shown (N, C = ends). [ ]: non-standard residue; d: D form.

Key:
[1] = general procedure: Fmoc solid-phase peptide synthesis; Rink Amide MBHA resin (Novabiochem), 0.74 mmol/g; Wang resin if R1 is -OH; HBTU/HOBT/DIPEA; settings: whole synthesis, HPLC, scale of the general procedure 1.0 mmole
[2] = general procedure: Fmoc solid-phase peptide synthesis; Rink Amide MBHA; HBTU/HOBT/DIPEA; settings: whole synthesis

Ac-1-Nal-Arg-c(Cys-D-Ala-His-D-Phe-Arg-Trp-Cys)-NH2
final purity (method not given) [1]: 99.9%

Ac-2-Nal-Arg-c(Cys-D-Ala-His-D-Phe-Arg-Trp-Cys)-NH2
final HPLC purity ([2]; HPLC, scale 0.16 mmole): 99.9%
isolated mass ([2]; scale 0.16 mmole): Approximately 62 mg
isolated yield ([2]; scale 0.16 mmole): 29%

Ac-FRC[dA]H[dF]RWC-NH2 (disulfide 3-9)
final purity (method not given) [1]: 98.9%

Ac-HRC[dA]H[dF]RWC-NH2 (disulfide 3-9)
final purity (method not given) [1]: 99.9%

Ac-Pff-Arg-c(Cys-D-Ala-His-D-Phe-Arg-Trp-Cys)-NH2
final purity (method not given) [1]: 99.9%

Ac-Tyr-Arg-c(Cys-D-Ala-His-D-Phe-Arg-Trp-Cys)-NH2
final purity (method not given) [1]: 98.0%

Ac-WRC[dA]H[dF]RWC-NH2 (disulfide 3-9)
final purity (method not given) [1]: 98.8%

H-HRC[dA]H[dF]RWC-NH2 (disulfide 3-9)
final purity (method not given) ([2]; HPLC, scale 0.5 mmole): 99.9%
isolated mass ([2]; scale 0.5 mmole): 227 mg
isolated yield ([2]; scale 0.5 mmole): 37%
